# From PubChem BioAssay AID493014 (National Center for Advancing Translational Sciences (NCATS), 2011)
# The other results are listed elsewhere or left out. The main result of the screen is listed elsewhere. These columns were measured beside it and carry no call. The list favours compounds with an active or inconclusive main result. Potencies come from curve fits of mixed quality, noted in brackets.
# Assay: qHTS Assay to Find Inhibitors of Chronic Active B-Cell Receptor Signaling
# Details: ABC-DLBCL IkBa-CBG/CBR reporter, luminescence ratio (green luciferase fused to IkBa over red control in TMD8 lymphoma cells), 4 h
# Procedure, shortened: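 Doxycycline induced both beetle luciferases in TMD8 lymphoma cells; IKK-driven degradation limits the IkappaBalpha-fused green signal, while red luminescence normalises for cell number and nonspecific effects. Compounds tested up to 46 uM, 4 hrs.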
# [1] = measured here: CBR red luminescence, cell number
# [2] = measured here: IkBa-CBG green luminescence
SMILES,AC50 [1],AC50 [2]
CCN(Cc1ccncc1)C(=O)c1ccccc1NS(=O)(=O)c1ccc(Br)cc1,"0.224 µM [rising, full curve, poor fit]",
CCOc1ccc(-n2c(-c3ccco3)n[nH]c2=S)cc1,"0.562 µM [rising, partial curve, poor fit]",
N#Cc1ccc(CSc2nc(N)cc(N)n2)cc1,"22.4 µM [rising, single point]",
COCCn1c(C)cc(/C=C(\C#N)C(=O)OCC(=O)Nc2ccc(S(N)(=O)=O)cc2)c1C,"14.6 µM [rising, partial curve, poor fit]",
Nc1ccccc1C(=O)N=Nc1[nH]c(N)c2ccccc12,"9.2 µM [falling, partial curve]",
N#Cc1ccccc1NC(=O)c1cccc(COc2ccc(Cl)cc2Cl)c1,"0.92 µM [rising, full curve]","25.9 µM [falling, partial curve, poor fit]"
Cc1cc(F)c(F)c(C(=O)N2CCN(C)CC2)c1Cl,"15.8 µM [rising, partial curve, poor fit]",
Cc1csc(NC(=O)c2ccc(COc3ccccc3)o2)n1,"14.1 µM [falling, partial curve]",
COc1ccccc1N1CCN(c2nc3ccccc3nc2C(C#N)C(=O)OC(C)C)CC1 (stereo unspecified),"29.1 µM [falling, single point]",
COc1ccc(Cc2nc(-c3ccc(Cl)cc3)no2)cc1,"0.103 µM [rising, full curve, poor fit]",
O=C(C[n+]1ccc2ccccc2c1)c1ccccc1,"0.631 µM [rising, partial curve, poor fit]",
COc1cc(OC)cc(C(=O)N[C@@H](CCSC)c2nc3ccccc3[nH]2)c1,"35.5 µM [falling, single point]",
O=C(c1ccc(Cl)cc1)N1CCCC(c2ccccc2)=N1,"0.447 µM [falling, full curve]",
Cc1cc(C(=O)Nc2nc3ccc(Cl)cc3s2)nn1C,"2 µM [falling, full curve, poor fit]",
O=C(/C=C/c1ccc(F)cc1)NCCCN1CCN(CCCNC(=O)/C=C/c2ccc(F)cc2)CC1,"0.164 µM [rising, full curve, poor fit]",
COc1cc(N)c(Cl)cc1C(=O)OCC(=O)Nc1cccnc1Cl,"6.51 µM [rising, single point]",
CN(C)S(=O)(=O)c1cccc(NC(=S)Nc2cccc3cnccc23)c1,"35.5 µM [falling, single point]",
CCOc1ccc(/C=C2\CCc3ccccc3C2=O)cc1,"2.51 µM [rising, partial curve, poor fit]",
O=C(N/N=C/C=C/c1ccco1)c1cccc([N+](=O)[O-])c1,"16.4 µM [rising, single point]",
Cn1cccc1C(=O)NC(=O)COC(=O)CNC(=O)c1ccc(Cl)cc1Cl,"15.8 µM [rising, partial curve, poor fit]",
COC(=O)Cc1ccc(NC(=S)NC2CC2)cc1,"20 µM [rising, single point]",

SMILES,AC50 [1],AC50 [2]
COc1cccc(C(=O)NNC(=O)C2CCCO2)c1 (stereo unspecified),"15.8 µM [falling, partial curve, poor fit]",
CC(=NNC(=O)c1ccc(NS(=O)(=O)c2ccc(Br)cc2)cc1)c1cccnc1,"13 µM [falling, partial curve]",
Cc1csc(NC(=O)CCNC(=O)c2ccccc2Cl)n1,"8.91 µM [falling, partial curve, poor fit]",
CN(C)C(=O)c1ccc2c(c1)C1C3CCC(C3)C1C(c1ccccc1)N2 (stereo unspecified),"8.2 µM [falling, partial curve, poor fit]",
CC(/C=C/c1ccccc1)=N/NC(=O)c1cnccn1,"0.411 µM [rising, full curve, poor fit]",
O=C(CCS(=O)(=O)c1ccccc1)Nc1ccc(-c2nc3ccccc3s2)cc1,"0.116 µM [falling, full curve]",
Cc1nc(-c2ccccc2)sc1-c1nc(-c2ccncc2)ncc1S(=O)(=O)c1ccccc1,"0.891 µM [rising, full curve, poor fit]",
O=C(NNC(=O)c1cccs1)c1cccc(F)c1,"12.6 µM [falling, single point]",
Cc1sc2ncnc(Sc3nnnn3-c3ccccc3)c2c1C,"3.55 µM [falling, partial curve]",
CCOC(=O)N1CCC(N2CCN(S(=O)(=O)c3ccc(Cl)cc3)CC2)CC1,"0.58 µM [falling, partial curve, poor fit]",
O=C(O)c1cc(-c2ccccc2)n(-c2ccc(Cl)cc2Cl)n1,"6.31 µM [falling, single point]",
O=C(O)C(Cc1ccccc1)N=Cc1c(O)c2ccccc2oc1=O (stereo unspecified),"8.91 µM [falling, partial curve, poor fit]",
Cc1ccc(OCC(=O)Nc2ccc(N3CCN(C(=O)c4ccco4)CC3)cc2)cc1C,"35.5 µM [falling, single point]",
Cc1ccc(/C=C/c2nc3ccccc3n2S(=O)(=O)c2ccc(Br)cc2)cc1,"11.2 µM [falling, partial curve, poor fit]",
Cc1csc(NC(=O)c2cccc(S(=O)(=O)N3CCCCC3)c2)n1,"9.2 µM [falling, partial curve, poor fit]",
O=C(C1CC1)N1CCc2cc(Br)cc(S(=O)(=O)NCc3ccc4c(c3)OCO4)c21,"22.4 µM [falling, single point]",
COc1ccccc1N1C(=O)[C@@H]2[C@H](C1=O)[C@H](C(=O)c1ccc(OC(C)=O)cc1)N1N=CC=C[C@@H]21,"12.6 µM [falling, partial curve]",
CC(=O)Nc1ccc(NCN2C(=O)[C@@H]3[C@H]4CC[C@H](C4)[C@@H]3C2=O)cc1,"7.31 µM [rising, single point]",
CCOC(=O)N1CCc2c(sc(NC(=O)c3ccc(Cl)s3)c2C(N)=O)C1,"8.2 µM [falling, partial curve]","23.1 µM [rising, partial curve, poor fit]"
O=S(=O)(Nc1ccc(O)c2ccccc12)c1cccs1,"35.5 µM [falling, single point]",
Cc1nc(Cl)c(C(=O)NC(=O)Nc2cccc(C(F)(F)F)c2)c(C)c1[N+](=O)[O-],"0.058 µM [falling, partial curve, poor fit]",

SMILES,AC50 [1],AC50 [2]
O=C(Cc1cccs1)NCc1cccc(Br)c1,"15.8 µM [rising, single point]",
CC(=O)Oc1ccc(C(=O)Nc2cc(C)on2)cc1,"14.1 µM [falling, single point]",
CCc1c(-c2ccccc2)nc2nc(C)c(C)nn12,"13 µM [rising, partial curve, poor fit]",
CCNC(=S)N1CCC(Cc2ccccc2)CC1,"12.6 µM [falling, partial curve, poor fit]",
COc1ccc(CC(=O)Nc2ccc(C(=O)Nc3ccccc3C(=O)O)cc2)cc1OC,"23.1 µM [falling, single point]",
COc1cccc(N(C(=O)Cc2cccs2)C(C(=O)NC2CCCC2)c2ccncc2)c1 (stereo unspecified),"14.1 µM [rising, partial curve, poor fit]",
CCNc1nc(NC(C)C)nc(N(C#N)Cc2ccccc2)n1,"1.64 µM [falling, full curve]",
CCOc1ccccc1NC(=O)CSc1n[nH]c(N)n1,"8.91 µM [falling, partial curve]",
CC(=O)Nc1ccc(NC(=O)c2nc(-c3ccccc3)oc2C)cc1,"31.6 µM [falling, partial curve, poor fit]",
COc1ccc(-c2nc(CS(=O)CC(=O)NCCCN3CCOCC3)c(C)o2)cc1OC (stereo unspecified),"5.62 µM [falling, partial curve, poor fit]",
CSc1ccc(/C=C/c2nc3ccccc3n2S(=O)(=O)c2ccc(F)c(C)c2)cc1,"7.08 µM [falling, partial curve]",
NC(=O)c1ccc(Cn2c(C(=O)c3ccc(Cl)cc3)c3ccccc3[n+]2[O-])cc1,"4.61 µM [falling, single point]",
O=C(NCc1ccc(F)cc1)Nc1cccc([N+](=O)[O-])c1,"5.62 µM [rising, full curve, poor fit]",
Cc1ccc2c(NC(=S)NC(=O)c3ccccc3)cccc2n1,"3.55 µM [falling, partial curve, poor fit]",
COc1ccccc1-c1cc(C(=O)NCc2ccc(Cl)cc2)no1,"5.62 µM [falling, full curve, poor fit]",
Fc1ccc(/C=N/Nc2cc(N3CCOCC3)ncn2)cc1,"7.94 µM [rising, partial curve]",
CCN1C(=O)c2ccccc2S(=O)c2ccc(C(=O)NCCN(CC(C)C)CC(C)C)cc21 (stereo unspecified),"35.5 µM [falling, single point]",
CCOC(=O)N1CCC(NC(=S)Nc2ccc3nc(N4CCN(CC)CC4)cc(C)c3c2)CC1,"7.08 µM [falling, partial curve]","14.1 µM [rising, partial curve, poor fit]"
CC1=C([N+](=O)[O-])C(c2cccc(Br)c2)C2=C(N1)c1ccccc1C2=O (stereo unspecified),"1.84 µM [rising, partial curve, poor fit]","1.84 µM [falling, partial curve, poor fit]"
COc1ccccc1C(=O)NCCC(=O)NCC1COc2ccccc2O1 (stereo unspecified),"29.1 µM [rising, single point]",

# Another view of some results above.
SMILES | AC50 [1] | AC50 [2]
CCNC(=S)N1CCC(Cc2ccccc2)CC1 | 12.6 µM [falling, partial curve, poor fit] | 
COc1ccc(CC(=O)Nc2ccc(C(=O)Nc3ccccc3C(=O)O)cc2)cc1OC | 23.1 µM [falling, single point] | 
COc1cccc(N(C(=O)Cc2cccs2)C(C(=O)NC2CCCC2)c2ccncc2)c1 (stereo unspecified) | 14.1 µM [rising, partial curve, poor fit] | 
CCOc1ccccc1NC(=O)CSc1n[nH]c(N)n1 | 8.91 µM [falling, partial curve] | 
CC(=O)Nc1ccc(NC(=O)c2nc(-c3ccccc3)oc2C)cc1 | 31.6 µM [falling, partial curve, poor fit] | 
